Results reported in article doi:10.1101/329136.
These are yes or no findings as the source states them, for the method shown. A result given as binding can be weak or reduced; the word gives no strength.

Assays:
[1] = biological target: talin VBS1 (H1-H4) residues 482-636; assay: ITC
[2] = biological target: talin VBS1 (H1-H4) residues 482-636; assay: native gel or EMSA

Row | Binder | binding [1] | binding [2]
1 | TRETIFEASKAVTNSLSNLISLIGT [IpaA VTBS K498A peptide] | binds | 
2 | TRETIFEASKKVTNSLSNLISLIGT [IpaA VTBS peptide (488-512)] |  | binds
3 | AIYEKAKEVSSALSKVLSKIDD (peptide, UniProt P18010 565-586) [IpaA VBS2 peptide (565-586)] | no binding | 
